{"source": "PubChem BioAssay AID602196 (INSERM, 2012)", "assay": "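Knock-downs that protect lung cancer cells from cisplatin or sensitise them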", "cells": "human A549 lung cancer cells", "reagents": "siRNA pair against human genes", "duration": "48 h transfection before cisplatin; time from cisplatin to read-out not stated", "challenge": "cisplatin at a dose killing half of control-siRNA cells; exact dose and duration not given", "measurement": "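Cisplatin cell death as a shift from the 50% death seen with control siRNA; siRNAs toxic or growth-blocking alone scored 0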", "reading the numbers": "two-siRNA summed score (-2 to +2): higher = both siRNAs protect from cisplatin killing; -2 means both sensitise", "rule for the call": "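siRNAs harmful alone (LDH or WST-1) get 0; others get +1 for less and -1 for more cisplatin killing; genes are active when the two siRNAs give the same sign, summing to ±2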", "calls": "active = both siRNAs shift cisplatin killing the same way; inactive = no consistent shift, or siRNA harmful alone", "note": "Shown is a random part of about 23,000 reagents tested. In the full data, 455 (2%) were called active. 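Active includes both protection and sensitisation; some change values fall well beyond the stated -50 to +50 range.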 The numbers tell different reagents against one gene apart. Further read-outs or replicates are left out here. The record does not give: the amount of reagent."}
{"Gene":"AGA (aspartylglucosaminidase)","reagent no.":1,"two-siRNA summed score (-2 to +2)":0,"Outcome":"inactive"}
{"Gene":"LINC02239 (long independently transcribed non-coding RNA 2239)","reagent no.":1,"two-siRNA summed score (-2 to +2)":0,"Outcome":"inactive"}
{"Gene":"MKRN2 (makorin ring finger protein 2)","reagent no.":1,"two-siRNA summed score (-2 to +2)":0,"Outcome":"inactive"}
{"Gene":"EIF4A3 (eukaryotic translation initiation factor 4A3)","reagent no.":1,"two-siRNA summed score (-2 to +2)":0,"Outcome":"inactive"}
{"Gene":"CNTNAP2 (contactin associated protein 2)","reagent no.":1,"two-siRNA summed score (-2 to +2)":0,"Outcome":"inactive"}
{"Gene":"TMEM183AP3 (TMEM183A pseudogene 3)","reagent no.":1,"two-siRNA summed score (-2 to +2)":1,"Outcome":"inactive"}
{"Gene":"KRTAP4-4 (keratin associated protein 4-4)","reagent no.":1,"two-siRNA summed score (-2 to +2)":0,"Outcome":"inactive"}
{"Gene":"USP48 (ubiquitin specific peptidase 48)","reagent no.":1,"two-siRNA summed score (-2 to +2)":-1,"Outcome":"inactive"}
{"Gene":"LCOR (ligand dependent nuclear receptor corepressor)","reagent no.":1,"two-siRNA summed score (-2 to +2)":0,"Outcome":"inactive"}
{"Gene":"LCOR (ligand dependent nuclear receptor corepressor)","reagent no.":2,"two-siRNA summed score (-2 to +2)":0,"Outcome":"inactive"}
{"Gene":"LINC01465 (long independently transcribed non-coding RNA 1465)","reagent no.":1,"two-siRNA summed score (-2 to +2)":0,"Outcome":"inactive"}
{"Gene":"LOC440341","reagent no.":1,"two-siRNA summed score (-2 to +2)":0,"Outcome":"inactive"}
{"Gene":"FAM81A (family with sequence similarity 81 member A)","reagent no.":1,"two-siRNA summed score (-2 to +2)":0,"Outcome":"inactive"}
{"Gene":"LOC389202","reagent no.":1,"two-siRNA summed score (-2 to +2)":0,"Outcome":"inactive"}
{"Gene":"CCNB3 (cyclin B3)","reagent no.":1,"two-siRNA summed score (-2 to +2)":0,"Outcome":"inactive"}
{"Gene":"CCDC107 (coiled-coil domain containing 107)","reagent no.":1,"two-siRNA summed score (-2 to +2)":1,"Outcome":"inactive"}
{"Gene":"CCL27 (C-C motif chemokine ligand 27)","reagent no.":1,"two-siRNA summed score (-2 to +2)":0,"Outcome":"inactive"}
{"Gene":"FLJ41821","reagent no.":1,"two-siRNA summed score (-2 to +2)":0,"Outcome":"inactive"}
{"Gene":"LOC400403","reagent no.":1,"two-siRNA summed score (-2 to +2)":0,"Outcome":"inactive"}
{"Gene":"LOC440509","reagent no.":1,"two-siRNA summed score (-2 to +2)":0,"Outcome":"inactive"}
{"Gene":"HYAL2 (hyaluronidase 2)","reagent no.":1,"two-siRNA summed score (-2 to +2)":0,"Outcome":"inactive"}
{"Gene":"LINC01879 (long intergenic non-protein coding RNA 1879)","reagent no.":1,"two-siRNA summed score (-2 to +2)":0,"Outcome":"inactive"}
{"Gene":"DACH2 (dachshund family transcription factor 2)","reagent no.":1,"two-siRNA summed score (-2 to +2)":0,"Outcome":"inactive"}
{"Gene":"RSBN1L (round spermatid basic protein 1 like)","reagent no.":1,"two-siRNA summed score (-2 to +2)":0,"Outcome":"inactive"}
{"Gene":"ETAA1 (ETAA1 activator of ATR kinase)","reagent no.":1,"two-siRNA summed score (-2 to +2)":0,"Outcome":"inactive"}
{"Gene":"PRDM9 (PR/SET domain 9)","reagent no.":1,"two-siRNA summed score (-2 to +2)":0,"Outcome":"inactive"}
{"Gene":"ARID1B (AT-rich interaction domain 1B)","reagent no.":1,"two-siRNA summed score (-2 to +2)":0,"Outcome":"inactive"}
{"Gene":"RCN1 (reticulocalbin 1)","reagent no.":1,"two-siRNA summed score (-2 to +2)":-1,"Outcome":"inactive"}
{"Gene":"PGAP1 (post-GPI attachment to proteins inositol deacylase 1)","reagent no.":1,"two-siRNA summed score (-2 to +2)":1,"Outcome":"inactive"}
{"Gene":"CDC26 (cell division cycle 26)","reagent no.":1,"two-siRNA summed score (-2 to +2)":0,"Outcome":"inactive"}
{"Gene":"CEACAM3 (CEA cell adhesion molecule 3)","reagent no.":1,"two-siRNA summed score (-2 to +2)":-1,"Outcome":"inactive"}

Look-ups from the list:
LINC01465 (long independently transcribed non-coding RNA 1465), Outcome: inactive
Value for CCDC107 (coiled-coil domain containing 107) in “Outcome”: inactive
Entry for ARID1B (AT-rich interaction domain 1B) under “two-siRNA summed score (-2 to +2)”: 0
For “Outcome”, LOC440509 has inactive
LOC440341, Outcome = inactive
